Holding throughout (test): affinity purification with mass spectrometry
Experiment [1] addresses Gdown1, endogenously tagged (eGFP-AID-3C-Gdown1) (human (endogenous in K562)) (UniProt P0CAP2).
Experiment [2] has the same target. The source holds these as a separate data set.
Experiment [3] shares this target. This is another data set of the same source.

Amino acid sequences for entries named in this document (tags omitted).
UniProt Q8IXW5: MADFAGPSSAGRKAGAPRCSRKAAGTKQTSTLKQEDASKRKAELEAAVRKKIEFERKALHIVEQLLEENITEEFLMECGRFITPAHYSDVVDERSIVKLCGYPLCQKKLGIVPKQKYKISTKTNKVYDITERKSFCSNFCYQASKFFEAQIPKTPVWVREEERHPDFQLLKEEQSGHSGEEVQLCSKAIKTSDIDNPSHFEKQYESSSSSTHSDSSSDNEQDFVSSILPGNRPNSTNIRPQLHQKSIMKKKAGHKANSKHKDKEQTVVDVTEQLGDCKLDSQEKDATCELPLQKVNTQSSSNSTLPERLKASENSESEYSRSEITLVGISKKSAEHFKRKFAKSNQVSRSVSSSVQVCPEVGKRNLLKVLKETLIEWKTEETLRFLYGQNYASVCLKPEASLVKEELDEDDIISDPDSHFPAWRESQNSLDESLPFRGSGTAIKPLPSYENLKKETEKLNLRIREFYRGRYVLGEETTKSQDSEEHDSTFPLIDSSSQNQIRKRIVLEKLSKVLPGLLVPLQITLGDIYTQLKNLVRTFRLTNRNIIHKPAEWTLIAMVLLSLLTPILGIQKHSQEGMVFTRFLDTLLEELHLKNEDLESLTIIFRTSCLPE
UniProt Q9UHW5: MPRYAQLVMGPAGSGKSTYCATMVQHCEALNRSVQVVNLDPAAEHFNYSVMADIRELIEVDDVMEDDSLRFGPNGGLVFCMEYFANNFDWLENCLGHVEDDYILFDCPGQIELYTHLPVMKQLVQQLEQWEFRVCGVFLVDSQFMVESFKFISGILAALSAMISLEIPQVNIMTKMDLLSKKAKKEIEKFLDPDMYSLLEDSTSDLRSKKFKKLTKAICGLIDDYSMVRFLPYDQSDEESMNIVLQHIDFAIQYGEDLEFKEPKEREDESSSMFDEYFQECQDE
UniProt O94762: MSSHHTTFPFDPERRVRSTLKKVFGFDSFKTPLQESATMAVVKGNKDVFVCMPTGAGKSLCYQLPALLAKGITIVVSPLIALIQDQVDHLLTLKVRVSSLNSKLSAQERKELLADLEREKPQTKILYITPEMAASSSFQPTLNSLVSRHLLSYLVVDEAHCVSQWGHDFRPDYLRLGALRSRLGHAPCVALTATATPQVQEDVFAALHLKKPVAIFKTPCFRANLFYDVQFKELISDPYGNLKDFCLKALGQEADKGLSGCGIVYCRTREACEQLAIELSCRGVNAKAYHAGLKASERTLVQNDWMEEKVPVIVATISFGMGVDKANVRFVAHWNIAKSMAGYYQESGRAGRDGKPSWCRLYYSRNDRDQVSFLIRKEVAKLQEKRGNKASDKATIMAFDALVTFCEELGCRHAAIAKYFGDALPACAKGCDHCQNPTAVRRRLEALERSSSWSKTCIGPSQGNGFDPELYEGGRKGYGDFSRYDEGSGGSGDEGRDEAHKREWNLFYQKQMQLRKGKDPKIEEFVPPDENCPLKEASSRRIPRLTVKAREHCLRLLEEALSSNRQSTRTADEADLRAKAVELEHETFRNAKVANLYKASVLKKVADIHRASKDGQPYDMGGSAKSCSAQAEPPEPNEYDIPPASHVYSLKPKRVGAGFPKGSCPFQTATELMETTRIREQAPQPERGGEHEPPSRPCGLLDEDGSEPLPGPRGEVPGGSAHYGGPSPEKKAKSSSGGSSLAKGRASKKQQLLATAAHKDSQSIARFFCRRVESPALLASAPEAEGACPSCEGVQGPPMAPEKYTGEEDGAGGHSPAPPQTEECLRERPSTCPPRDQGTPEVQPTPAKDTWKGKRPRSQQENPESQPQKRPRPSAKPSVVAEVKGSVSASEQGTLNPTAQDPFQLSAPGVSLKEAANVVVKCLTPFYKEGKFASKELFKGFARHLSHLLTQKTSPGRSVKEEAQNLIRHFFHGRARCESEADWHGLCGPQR

Where two headings read alike, the source gives them in different places. No constants are given. Whether binding was seen depends on the method and setting. Binding seen in cells or lysates may run through a third protein. Here binding means that the protein was enriched with, or labelled near, the bait; the list need not be complete.

Turning to “RPAP2, endogenous (from UniProt Q8IXW5 1-612)”, the binding result in experiment [1] and in experiment [2] was “binds” in each case.

In the case of “GPN3, endogenous (from UniProt Q9UHW5 1-284)”, the binding result in experiment [1] and in experiment [2] was “binds” in each case.

In the case of “RECQL5, endogenous (from UniProt O94762 1-991)”, the binding entry in experiment [2] and in experiment [3] was “binds” each time.

For the origin of these results see article doi:10.64898/2025.12.10.692585.
